Data taken from PubChem BioAssay AID330 (DTP/NCI, 2004).
The list is a part of this screen's results and no random one: its compounds were picked by chemical class. Other doses and runs of a compound may be missing. T/C: endpoint of the treated group in % of that of the vehicle group. Some entries give survivors of the animals treated and no T/C: the source holds a T/C of zero for them, seemingly a mark for toxic or unscored doses. Some survivor counts are full or nearly so, which does not show that the dose was tolerated: the source hardly ever lists a survival T/C far under the control, and the zero likely stands for such cases as well. Counts of survivors are from the toxicity check (mostly the fifth day) where no day follows; animals may have died later. Schedules are NCI's codes, taken here to give the interval after Q, in days (D) or hours (H), and the number of doses after X. For survival time, the PubChem record calls one and a half times the control and up active, and a quarter to a half above the control has no call in these data; cut-offs in other NCI protocols can differ. Some doses were run more than once; their values stand side by side, smallest first. Some T/C values are marked as having no survivor count here; that says nothing about deaths at the dose. Some T/C values carry the count of animals alive at the toxicity check (mostly the fifth day); without a count or a note in brackets, all were alive then.

Tested on: P388 leukemia ip, CD2F1 mice, survival T/C
Experiment: NCI In Vivo Anticancer Drug Screen. Data for tumor model P388 Leukemia (intraperitoneal) in CD2F1 (CDF1) mice
Settings: T/C endpoint: median survival time, higher T/C = longer survival
[1] = dose: 25.0 mg/kg/injection, schedule: Q01DX009 (ip), vehicle: saline with Tween-80
[2] = dose: 50.0 mg/kg/injection, schedule: Q01DX009 (ip), vehicle: saline with Tween-80
[3] = dose: 100.0 mg/kg/injection, schedule: Q04DX003 (ip), vehicle: saline with Tween-80
[4] = dose: 200.0 mg/kg/injection, schedule: Q01DX009 (ip), vehicle: saline with Tween-80
[5] = dose: 200.0 mg/kg/injection, schedule: Q04DX003 (ip), vehicle: saline with Tween-80
[6] = dose: 400.0 mg/kg/injection, schedule: Q04DX003 (ip), vehicle: saline with Tween-80
[7] = dose: 100.0 mg/kg/injection, schedule: Q01DX009 (ip), vehicle: saline
[8] = dose: 200.0 mg/kg/injection, schedule: Q01DX009 (ip), vehicle: saline
[9] = dose: 100.0 mg/kg/injection, schedule: Q04DX003 (ip), vehicle: saline
[10] = dose: 200.0 mg/kg/injection, schedule: Q04DX003 (ip), vehicle: saline
[11] = dose: 400.0 mg/kg/injection, schedule: Q04DX003 (ip), vehicle: saline

CC(C)OP(C)(=O)O.[Nd]
T/C [1]: 95 % of control [survivor count not shown] | T/C [2]: 87 % of control [survivor count not shown] | T/C (dose: 100.0 mg/kg/injection, schedule: Q01DX009 (ip), vehicle: saline with Tween-80): 91 % of control [survivor count not shown] | T/C [3]: 106 % of control [survivor count not shown] | T/C [4]: 96 % of control [survivor count not shown] | T/C [5]: 97 % of control [survivor count not shown] | T/C [6]: 95 % of control [survivor count not shown]

CCOC(=O)CCC([N+](=O)[O-])([N+](=O)[O-])[N+](=O)[O-]
T/C [7]: 111 % of control | T/C [8]: 116 % of control | T/C (dose: 400.0 mg/kg/injection, schedule: Q01DX009 (ip), vehicle: saline): 125 % of control

O=C(O)Cc1ccc(N(CCCl)CCCl)cc1
T/C (dose: 0.75 mg/kg/injection, schedule: Q01DX009 (ip), vehicle: saline with Tween-80): 122 % of control | T/C (dose: 1.0 mg/kg/injection, schedule: Q04DX003 (ip), vehicle: saline): 118 % of control | T/C (dose: 1.5 mg/kg/injection, schedule: Q01DX009 (ip), vehicle: saline with Tween-80): 118 % of control | T/C (dose: 2.0 mg/kg/injection, schedule: Q04DX003 (ip), vehicle: saline): 118 % of control | T/C (dose: 3.0 mg/kg/injection, schedule: Q01DX009 (ip), vehicle: saline with Tween-80): 154 and 227 % of control | T/C (dose: 4.0 mg/kg/injection, schedule: Q04DX003 (ip), vehicle: saline): 154 % of control | T/C (dose: 6.0 mg/kg/injection, schedule: Q01DX009 (ip), vehicle: saline with Tween-80): 95 % of control | T/C (dose: 6.25 mg/kg/injection, schedule: Q04DX003 (ip), vehicle: saline with Tween-80): 200 % of control | survivor count (dose: 12.0 mg/kg/injection, schedule: Q01DX009 (ip), vehicle: saline with Tween-80): 5 of 6 | T/C (dose: 12.5 mg/kg/injection, schedule: Q04DX003 (ip), vehicle: saline with Tween-80): 177 % of control | survivor count (dose: 25.0 mg/kg/injection, schedule: Q04DX003 (ip), vehicle: saline with Tween-80): 6 of 6

C1OP2OCC1O2
T/C [2]: 111 % of control | T/C [4]: 87 % of control

N#CSC(Cl)(Cl)C(Cl)Cl
T/C (dose: 6.25 mg/kg/injection, schedule: Q01DX009 (ip), vehicle: saline): 97 % of control [4 of 6 alive] | T/C (dose: 12.5 mg/kg/injection, schedule: Q01DX009 (ip), vehicle: saline): 109 % of control | T/C (dose: 25.0 mg/kg/injection, schedule: Q01DX009 (ip), vehicle: saline): 109 % of control | survivor count (dose: 50.0 mg/kg/injection, schedule: Q01DX009 (ip), vehicle: saline): 6 of 6 | survivor count [7]: 6 of 6 | T/C [8]: 90 % of control

C=C(C(=O)O)[As](=O)(O)O
T/C (dose: 12.5 mg/kg/injection, schedule: Q01DX009 (ip), vehicle: saline with Tween-80): 116 % of control | T/C [1]: 114 % of control | T/C [2]: 109 % of control [5 of 6 alive]

O=C(c1c([N+](=O)[O-])cc([N+](=O)[O-])cc1[N+](=O)[O-])c1c([N+](=O)[O-])cc([N+](=O)[O-])cc1[N+](=O)[O-]
T/C [9]: 108 % of control | T/C [10]: 104 % of control | T/C [11]: 104 % of control

CCOP(=O)(O)CC.[Ti]
T/C (dose: 100.0 mg/kg/injection, schedule: Q01DX009 (ip), vehicle: Klucel (hydroxypropylcellulose) (HPC)): 95 % of control [survivor count not shown] | T/C (dose: 200.0 mg/kg/injection, schedule: Q01DX009 (ip), vehicle: Klucel (hydroxypropylcellulose) (HPC)): 94 % of control [survivor count not shown] | T/C (dose: 400.0 mg/kg/injection, schedule: Q01DX009 (ip), vehicle: Klucel (hydroxypropylcellulose) (HPC)): 91 % of control [survivor count not shown]

C1CN1.CC(N)C(=O)O.Nc1ncnc2nc[nH]c12
T/C (dose: 12.5 mg/kg/injection, schedule: Q04DX003 (ip), vehicle: saline): 112 % of control | T/C (dose: 25.0 mg/kg/injection, schedule: Q04DX003 (ip), vehicle: saline): 102 % of control | T/C (dose: 50.0 mg/kg/injection, schedule: Q04DX003 (ip), vehicle: saline): 112 % of control | survivor count [9]: 3 of 6 | survivor count [10]: 0 of 6 | survivor count [11]: 0 of 6

O=C1NC(=O)C2(CC3CCCC(C2)N3CCCl)N1 (configuration not stated)
T/C (dose: 1.87 mg/kg/injection, schedule: Q01DX005 (ip), vehicle: saline): 87 % of control [5 of 6 alive] | T/C (dose: 3.75 mg/kg/injection, schedule: Q01DX005 (ip), vehicle: saline): 95 % of control | T/C (dose: 7.5 mg/kg/injection, schedule: Q01DX005 (ip), vehicle: saline): 129 and 134 % of control | T/C (dose: 15.0 mg/kg/injection, schedule: Q01DX005 (ip), vehicle: saline): 141 and 142 % of control | survivor count (dose: 30.0 mg/kg/injection, schedule: Q01DX005 (ip), vehicle: saline): 6 of 6 | survivor count (dose: 60.0 mg/kg/injection, schedule: Q01DX005 (ip), vehicle: saline): 0 of 6 | survivor count (dose: 120.0 mg/kg/injection, schedule: Q01DX005 (ip), vehicle: saline): 0 of 6 | survivor count (dose: 240.0 mg/kg/injection, schedule: Q01DX005 (ip), vehicle: saline): 0 of 6

CC(C)OP(C)(=O)O.[Fe]
T/C [3]: 97 % of control [survivor count not shown] | T/C [5]: 97 % of control [survivor count not shown] | T/C [6]: 91 % of control [survivor count not shown]

C/C(N)=N/P(=O)(Oc1ccccc1)Oc1ccccc1
T/C (dose: 6.25 mg/kg/injection, schedule: Q01DX009 (ip), vehicle: distilled water + Tween-80): 97 % of control | T/C (dose: 6.25 mg/kg/injection, schedule: Q01DX009 (ip), vehicle: water): 102 % of control | T/C (dose: 12.5 mg/kg/injection, schedule: Q01DX009 (ip), vehicle: distilled water + Tween-80): 96 and 101 % of control | T/C (dose: 12.5 mg/kg/injection, schedule: Q01DX009 (ip), vehicle: water): 100 % of control | T/C (dose: 25.0 mg/kg/injection, schedule: Q01DX009 (ip), vehicle: distilled water + Tween-80): 104 and 120 % of control | T/C (dose: 25.0 mg/kg/injection, schedule: Q01DX009 (ip), vehicle: water): 105 % of control | T/C (dose: 50.0 mg/kg/injection, schedule: Q01DX009 (ip), vehicle: distilled water + Tween-80): 104 and 111 % of control | T/C (dose: 50.0 mg/kg/injection, schedule: Q01DX009 (ip), vehicle: water): 105 % of control | T/C (dose: 100.0 mg/kg/injection, schedule: Q01DX009 (ip), vehicle: distilled water + Tween-80): 99 % of control

C=CS(=O)(=O)C=C
T/C (dose: 0.25 mg/kg/injection, schedule: Q01DX009 (ip), vehicle: saline): 95 % of control | T/C (dose: 0.5 mg/kg/injection, schedule: Q01DX009 (ip), vehicle: saline): 95 % of control [4 of 6 alive] | survivor count (dose: 1.0 mg/kg/injection, schedule: Q01DX009 (ip), vehicle: saline): 0 of 6

C1CNNCCNN1.O=[N+]([O-])c1cc([N+](=O)[O-])c(O)c([N+](=O)[O-])c1
T/C (dose: 50.0 mg/kg/injection, schedule: Q01DX001 (ip), vehicle: Klucel (hydroxypropylcellulose) (HPC)): 98 % of control [survivor count not shown] | T/C (dose: 100.0 mg/kg/injection, schedule: Q01DX001 (ip), vehicle: Klucel (hydroxypropylcellulose) (HPC)): 103 % of control [survivor count not shown] | T/C (dose: 200.0 mg/kg/injection, schedule: Q01DX001 (ip), vehicle: Klucel (hydroxypropylcellulose) (HPC)): 95 % of control [survivor count not shown]

CCOCCOCCOP(C)(=O)OC(C)C (configuration not stated)
T/C (dose: 100.0 mg/kg/injection, schedule: Q01DX005 (ip), vehicle: saline): 100 % of control | T/C (dose: 200.0 mg/kg/injection, schedule: Q01DX005 (ip), vehicle: saline): 98 % of control
